# Patent US20050244906A1, “Detection kit, assay plate to be used therein, detection method, evaluation method, polyclonal antibody of frog vitellogenin and process for producing the same” (priority 2002, published 2005)
# Test system: hepatocyte in primary culture of an adult male Xenopus laevis
# Type: cell-based
# Method: According to a method similar to (Example 2-2), primary cultured hepatocytes of an adult male Xenopus laevis were prepared, followed by culturing in a culture liquid containing one of the chemicals, and with a culture liquid after 6 days, according to the ELISA, a VTG concentration in the culture liquid was quantified.
# Furthermore, by use of the assay system, the antagonist activity of a target substance could be evaluated.
smiles,measurement,value
"CC(C)(C)CC(C)(C)c1ccc(O)cc1 [OP, octylphenol]",antagonist activity on VTG synthesis induction due to 5 nM E2,antagonistic activity was exhibited
